Reference: EPA's ToxValDB 9.5

Tested on: Rattus norvegicus
Conditions: chronic; duration: 2 years; oral; gavage; M/F; mortality

CCCCCCCC1CCC(=O)O1 (stereo unspecified) [5-Heptyldihydro-2(3H)-furanone]
NOAEL: 112 mg/kg-day
